Experimental findings from article PMC4248917 are described below.

Chains of the proteins cited; added tags and fusions are not shown. Residues count along the entry.
UniProt P02769, residues 25-607: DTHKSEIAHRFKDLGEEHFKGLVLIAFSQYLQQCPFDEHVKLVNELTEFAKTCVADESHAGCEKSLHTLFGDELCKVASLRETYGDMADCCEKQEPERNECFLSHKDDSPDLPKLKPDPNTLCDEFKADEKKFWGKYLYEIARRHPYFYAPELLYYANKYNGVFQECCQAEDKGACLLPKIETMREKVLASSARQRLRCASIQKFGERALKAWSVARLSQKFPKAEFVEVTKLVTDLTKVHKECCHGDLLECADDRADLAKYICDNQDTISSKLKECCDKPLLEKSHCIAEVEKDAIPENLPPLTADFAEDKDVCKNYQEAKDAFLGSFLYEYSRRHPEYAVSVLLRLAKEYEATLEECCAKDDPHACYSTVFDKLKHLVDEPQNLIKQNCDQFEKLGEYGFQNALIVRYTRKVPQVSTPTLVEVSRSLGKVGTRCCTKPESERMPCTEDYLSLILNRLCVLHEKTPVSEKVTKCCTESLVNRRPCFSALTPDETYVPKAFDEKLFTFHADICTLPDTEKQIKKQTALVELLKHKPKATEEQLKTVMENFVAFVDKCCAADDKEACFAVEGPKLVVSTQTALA
UniProt P06730: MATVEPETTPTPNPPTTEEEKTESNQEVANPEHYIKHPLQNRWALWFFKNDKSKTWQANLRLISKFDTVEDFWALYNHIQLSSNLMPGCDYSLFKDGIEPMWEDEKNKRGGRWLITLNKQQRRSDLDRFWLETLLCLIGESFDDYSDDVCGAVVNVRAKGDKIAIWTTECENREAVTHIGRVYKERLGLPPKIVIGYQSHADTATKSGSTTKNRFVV
UniProt Q04637: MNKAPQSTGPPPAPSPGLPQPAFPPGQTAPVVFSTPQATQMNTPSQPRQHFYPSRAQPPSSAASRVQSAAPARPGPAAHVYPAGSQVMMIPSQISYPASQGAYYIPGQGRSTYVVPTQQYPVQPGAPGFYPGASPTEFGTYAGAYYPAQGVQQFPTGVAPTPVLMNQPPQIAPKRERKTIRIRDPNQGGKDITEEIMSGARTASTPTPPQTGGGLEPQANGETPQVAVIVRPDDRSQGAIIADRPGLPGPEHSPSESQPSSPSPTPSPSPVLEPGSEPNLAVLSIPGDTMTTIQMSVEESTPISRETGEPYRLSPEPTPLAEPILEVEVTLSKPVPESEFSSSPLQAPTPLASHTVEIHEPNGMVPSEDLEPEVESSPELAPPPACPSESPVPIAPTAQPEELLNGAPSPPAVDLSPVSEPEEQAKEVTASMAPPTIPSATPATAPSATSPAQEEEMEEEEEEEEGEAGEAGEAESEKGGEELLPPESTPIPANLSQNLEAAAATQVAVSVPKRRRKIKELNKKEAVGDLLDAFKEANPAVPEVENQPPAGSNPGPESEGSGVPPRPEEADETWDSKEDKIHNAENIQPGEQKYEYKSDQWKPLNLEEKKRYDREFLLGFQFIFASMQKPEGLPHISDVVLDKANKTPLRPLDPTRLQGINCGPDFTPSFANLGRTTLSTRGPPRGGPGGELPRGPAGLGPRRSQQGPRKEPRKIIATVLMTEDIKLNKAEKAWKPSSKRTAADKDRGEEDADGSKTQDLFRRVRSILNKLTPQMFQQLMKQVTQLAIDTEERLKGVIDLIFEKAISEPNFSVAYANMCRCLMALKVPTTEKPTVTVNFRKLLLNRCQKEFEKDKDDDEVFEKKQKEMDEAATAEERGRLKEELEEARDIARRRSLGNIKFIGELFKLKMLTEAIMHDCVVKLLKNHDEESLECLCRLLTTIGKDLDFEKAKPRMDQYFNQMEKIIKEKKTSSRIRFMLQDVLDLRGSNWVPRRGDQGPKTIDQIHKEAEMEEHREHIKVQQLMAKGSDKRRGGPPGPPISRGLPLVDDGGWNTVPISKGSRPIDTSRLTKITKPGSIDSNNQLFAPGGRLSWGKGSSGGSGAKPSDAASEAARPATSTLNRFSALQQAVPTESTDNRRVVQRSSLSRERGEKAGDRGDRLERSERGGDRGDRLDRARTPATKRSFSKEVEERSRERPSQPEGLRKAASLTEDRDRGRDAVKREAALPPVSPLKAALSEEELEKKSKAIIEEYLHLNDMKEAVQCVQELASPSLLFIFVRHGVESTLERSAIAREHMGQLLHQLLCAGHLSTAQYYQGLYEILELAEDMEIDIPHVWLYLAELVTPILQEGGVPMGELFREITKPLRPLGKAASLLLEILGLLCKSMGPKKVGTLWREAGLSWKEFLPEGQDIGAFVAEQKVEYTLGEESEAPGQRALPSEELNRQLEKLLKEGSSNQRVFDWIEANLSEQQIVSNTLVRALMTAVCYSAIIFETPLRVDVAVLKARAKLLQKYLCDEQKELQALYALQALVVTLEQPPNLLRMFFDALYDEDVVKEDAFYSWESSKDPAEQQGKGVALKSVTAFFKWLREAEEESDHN

These are yes or no findings as the source states them, for the method shown.

For assay [1], the target named is bovine serum albumin (BSA) (bovine) (UniProt P02769). The experiment in a line: condition: 10 μg of nuclease-treated cytoplasmic extracts; ELISA; 1 μg of purified recombinant PSaV VPg or BSA coated on plates, incubated 2 h at 4°C with 10 μg of nuclease-treated cytoplasmic extract in 2% BSA in TBS with 0.05% Tween 20; detected with antibodies to eIF4E, eIF4A or eIF4G; only the target purified.

Assay [2] has the same target. The experiment in a line: pull-down; 1 μg of His-tagged VPg immobilised on HisPur cobalt resin, or resin alone; blocked with BSA; incubated 4 h at 4°C with recombinant eIF4E or BSA; immunoblot with anti-eIF4E; both purified.
For assay [3] the target is unchanged. The experiment in a line: ELISA; 1 μg of purified recombinant PSaV VPg or BSA coated on plates, incubated 2 h at 4°C with increasing concentrations of recombinant eIF4E in 2% BSA in TBS with 0.05% Tween 20; detected with anti-eIF4E; both purified. (In an ELISA, binding on a coated surface is turned into a signal by an enzyme label.)

Turning to “eIF4E, endogenous in the lysates of the capture ELISA (from UniProt P06730 1-217)”, the binding result in assay [1] is listed as “no binding”.

On to “eIF4G, endogenous in the lysates of the capture ELISA (from UniProt Q04637 1-1599)”, for which the binding entry in assay [1] is listed as “no binding”.

On to “recombinant eIF4E (from UniProt P06730 1-217)”, for which the binding entry in assay [2] and in assay [3] was “no binding” throughout.
